## Primary screen of a compound library

Results are given as percent effect. The record does not define 0% and 100%; most values in the screen are far below 50% and negative numbers occur (in some assays of this library far below -100). Compounds were drawn at random from those tested, without regard to their results. Two or more numbers in one place are separate tests of the same structure; such repeats can differ widely.

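Viability assay of Plasmodium falciparum sporozoites; the read-out is not stated. The concentration is filed as 10 mM, unlikely as a test dose, so the dose is not known. Direction is inferred from retests: higher values go with lower viability. Strong results were mostly tested again. About 34,000 compounds were tested under these conditions; 0.84% (about 280) showed 50% or more at least once.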

compound,percent effect
Cc1nn(C)c(N(C)C)c1CNC1CCOc2c(F)cccc21 (configuration not stated),-7.09
O=C(NC1=NCCCN1c1ccc(Cl)cc1)c1cccc(Cl)c1,-9.725 and -15.1 and -5.453
CC(C)N(C)Cc1cnc2n1CCN(Cc1cccc(C#N)c1)C2,7.61
O=C(c1ccc(N2CCCC2)nn1)N1CCCC(n2ccnc2)C1 (configuration not stated),-8.348
O=C(NCCCN1CCCCC1)c1n[nH]c(=O)c2ccccc12,4.963
Cc1c(C2CCCN(C(=O)OC(C)(C)C)C2)n2c(nc1=O)CCC2 (configuration not stated),1.505
CC(NCc1cnc(C2CCC2)s1)c1cccc(-n2ccnc2)c1 (configuration not stated),-8.705
O=C(c1ccccc1N1CCOCC1)N1CCCC(n2ccnc2)C1 (configuration not stated),6.203
COc1ccccc1C(NC(=O)C1CCCC1)c1noc(C)n1 (configuration not stated),-8.788
Cc1c(F)cccc1S(=O)(=O)NCC(C)(C)CC(C)O (configuration not stated),2.829
CN(Cc1cnn(C)c1)C(=O)NC1CCC(O)CC1 (configuration not stated),-17.25
Cc1cc(CN2CCN(C(=O)NC(C)Cn3ccnc3)CC2)on1 (configuration not stated),8.11
CCn1nc(C)cc1C(=O)Nc1cc(F)ccc1OCC1CCCO1 (configuration not stated),1.618
Cc1cc(C)n(CC(C)CNC(=O)NCc2csc(C)n2)n1 (configuration not stated),17.6
Cc1ccc(-c2ncc(C(=O)NCCNc3ncccn3)s2)c(C)c1,-2.56
CC(=O)N1CCN(C(=O)Nc2cnc3c(cnn3C(C)C)c2)CC1,25.32
Cn1nc(C#N)c2c1CN(C(=O)c1cccnc1)CCC2.O=C(O)C(F)(F)F,0.7821
O=C(NCc1ccoc1)NC1CCN(c2ncccn2)CC1,1.384
FC(F)(F)c1cc(C2CCN(c3cnccn3)CC2)n2ccnc2n1,9.892
COC1COC2(CCN(Cc3ccccc3F)CC2)C1.O=C(O)C(F)(F)F (configuration not stated),-18.35 and -30.62
CCCc1noc(CCCC(=O)N2CCCC2c2cnn(C)c2)n1 (configuration not stated),0.7558
CN(C)CCn1c(=O)n(C)c(=O)c2ccccc21.Cl,-2.473
CN(CCN1CCCCC1)C(=O)c1cc(CN2CCOCC2)on1,-16.88
CCOCC(=O)N1Cc2nccn2CC(CN2CCCC2)C1.O=C(O)C(F)(F)F (configuration not stated),6.566
Cc1csc2c(=O)n3c(nc12)CCN(C(=O)c1ccnn1C)CC3,3.347
Cc1ccc(C(=O)N2CCN(C(=O)Nc3ccccn3)CC2)o1,6.243
CCc1cc(N(C)Cc2ccncn2)n2nccc2n1,-3.231
O=C(O)C(F)(F)F.[H][C@@]12CCN(c3cnccn3)C[C@]1([H])CN(C(=O)C1CCCCC1)C2,0.722
Cc1ccc(C(=O)N2CCc3ncc(Cn4cccn4)n3CC2)cn1,-3.035
O=C(O)C(F)(F)F.O=C(c1ccncc1)N1CCC2(CCCN(c3ncc(F)cn3)C2)C1 (configuration not stated),-0.5673
Cn1cc(NC(=O)N2CCC(OCc3ccccc3)CC2)ccc1=O,2.312
CC(NC(=O)Cc1ccon1)c1ccc(OCC2CC2)c(F)c1 (configuration not stated),-3.727
Cc1cc(C(=O)N2CCN(Cc3ccsc3)CC2)c(C)n1C1CC1,14
O=C(O)C(F)(F)F.O=C(O)C(F)(F)F.c1csc(CN2Cc3nc(CN4CCCC4)oc3C2)c1,13.84
CC(C)OCc1nn(C)c2c1CN(Cc1cccs1)CC2.O=CO,1.226
O=S(=O)(c1ccccc1)N1CCC2(CCCN2Cc2ccc(Cl)cc2)C1 (configuration not stated),1.46
OCC1(CNC2CCc3cc4c(cc32)OCCO4)CC1 (configuration not stated),14.06 and 18.45
Cc1cn2nc(N3CCCCC3Cn3cccn3)sc2n1 (configuration not stated),8.575
CCc1noc(C)c1C(=O)N1CCC(c2[nH]ncc2S(C)(=O)=O)C1 (configuration not stated),13.05
Cc1cccc(CN2CC3(CCN(Cc4ccoc4)CC3)OCC2=O)n1.O=C(O)C(F)(F)F.O=C(O)C(F)(F)F,17.46 and -31.81 and -20.98
O=C(O)C(F)(F)F.[H][C@]12CC[C@@]3(N=C(CC)N(C)C3=O)[C@@]1([H])CN(Cc1ccccc1C)C2,5.754
O=C(Nc1ccccc1)c1nn(C2CCS(=O)(=O)C2)c2c1CCCC2 (configuration not stated),23.34 and 42.14 and 38.32
CN(C)c1ccc(NC(=O)N2CCCCCC2c2ccncc2)cn1 (configuration not stated),-8.99 and -20.34 and -20.82
Cc1nccc(C2CCCN(S(=O)(=O)N3CCOCC3)C2)n1 (configuration not stated),4.532
Cc1cnn(CCNCc2csc(-c3ccc4c(c3)OCO4)n2)c1,-6.265
O=C(O)C(F)(F)F.O=C(O)C(F)(F)F.[H][C@@]12OCCN(Cc3csc(C)n3)[C@@]1([H])CC[C@@H]2Oc1ccccn1,-16.46
O=C(O)C(F)(F)F.[H][C@@]12COC[C@H](C(=O)N3CCCCO3)[C@]1([H])CN(Cc1cc(C)on1)C2,-24.41 and 3.351 and -22.99
Cc1nc(CCNC2CCN(Cc3ccccc3)C2)sc1C (configuration not stated),1.999 and -8.232
Cc1ccc(=O)n(Cc2csc(N(C)C3CC3)n2)n1,6.024
CCNC(=O)C(C)Oc1ccc(N(C)S(C)(=O)=O)cc1 (configuration not stated),-1.424
[H][C@@]12CCN(C(=O)C3CCOCC3)C[C@]1(c1nc(C)no1)CCO2,-1.407
O=C(O)C(F)(F)F.O=C(O)C(F)(F)F.O=C(O)C(F)(F)F.[H][C@@]12CN(Cc3cccnc3)C[C@]1([H])[C@H](OC)CCN2Cc1c(C)noc1C,-4.506
CN1CCC(c2cccc(C(=O)N(C)C)n2)CC1,-3.772
O=C1CCC2(CCN(CC[C@H](O)c3ccccc3)CC2)CN1CCO,-4.332
Cl.O=C(NCCn1nc(C2CCNC2)c2cccnc21)c1ccccc1 (configuration not stated),0.3925
O=C(O)C(F)(F)F.[H][C@@]12CN(Cc3ccncc3)CC[C@]1([H])CN(c1ncccn1)C2,9.62
COc1ccc(CNC(=O)CNc2cc3c(cc2Cl)OCCCO3)cc1,5.536
O=C(c1ccccc1)N1CCCN(C(=O)c2ncncc2Cl)CC1,9.455
COCc1cncc2c1CCN(Cc1ccccn1)C2.O=C(O)C(F)(F)F.O=C(O)C(F)(F)F.O=C(O)C(F)(F)F,-4.961
Cc1nc(NC(=O)CCN2C(=O)c3ccccc3NC2C(C)C)sc1C (configuration not stated),-0.641
COc1ccc(OC)c(C(C)Nc2nc3c(C)nn(C)c3c(=O)n2C)c1 (configuration not stated),2.617
CCc1nc(CNCC2CCCN2c2cc(NC)ncn2)cs1 (configuration not stated),10.63
O=C(O)C(F)(F)F.O=C(O)C(F)(F)F.[H][C@@]12CCN(Cc3ccncc3)C[C@]1(C(=O)NCCOC)CCO2,-1.308
Clc1snnc1CN1CCCC1Cn1cncn1 (configuration not stated),12.78
Cn1cnc2c1CCN(Cc1csc(C3CCCCC3)n1)C2,9.649
O=C(O)C(F)(F)F.O=C(O)C(F)(F)F.O=C1COC2(COCCN(Cc3cccnc3)C2)CN1c1ccoc1 (configuration not stated),-12.4
CC(C)CC(=O)N1CCCC1c1nccnc1Nc1ncccn1 (configuration not stated),-0.6695
CS(=O)(=O)N1CCCn2nc(CNc3cc(C#N)ccn3)cc2C1,-19.29
Cc1cnccc1CCNC(=O)Nc1cnc(N(C)C)nc1,-2.271
CCN(CC)C(=O)C(c1ccccc1)N1CCn2c(C)nnc2C1 (configuration not stated),-8.374
COc1c(C2CCCN2C(=O)c2cncnc2C)c(C)nn1C (configuration not stated),2.667
COc1ccc(C(C)NC(=O)NCCCn2cncn2)cc1F (configuration not stated),-9.804
O=C(Cc1ccccn1)N1CCC(O)(Cn2ccc3ccncc32)CC1,6.686
NS(=O)(=O)CCNC(=O)c1cc2ccccc2nc1N1CCCC1,-22.03
Cc1nc2cc(C(=O)N3CCn4c(nnc4C4CC4)C3)ccc2s1,-625.2
CS(=O)(=O)NCc1ccc(C(=O)NCc2ccc3c(c2)CCC3)o1,-0.9989
Cc1nc(NC(=O)CCc2c(C)nc3cc(O)nn3c2C)sc1C,-13.08
CCC(=O)N1CCC(c2nc(C)c3c(n2)N(C)CCC3)CC1,4.604
CC(CNC(=O)c1ccc(Cl)cc1I)N1CCCC1 (configuration not stated),-8.353
CCOc1ccc(C(=O)Nc2c(C)nc3ccc(Cl)cn3c2=O)cc1,-3.179
[H][C@@]12COC[C@]1(c1nc(C)no1)CN(C(=O)Cc1ccsc1)C2,-15.59
c1cnn(CC2CCCN2c2ncnc3sccc23)c1 (configuration not stated),-18.63
COCCN1CCCC12CCN(C(=O)CC1CCCC1)CC2.O=C(O)C(F)(F)F,4.262
COCCO[C@H]1CCN(C(=O)c2ccsc2)[C@H]1Cc1cnn(C)c1,14.18
CCOCc1cnc2n1CCN(C(=O)c1ccccc1)C2C (configuration not stated),3.544
COc1ccc(C2CCCN2C(=O)Nc2ccc(OC)nc2)cc1 (configuration not stated),-12.71

For reference, 8 entries once more:

{"compound": "COC1COC2(CCN(Cc3ccccc3F)CC2)C1.O=C(O)C(F)(F)F", "stereo": "configuration not stated", "percent effect": "-18.35 and -30.62"}
{"compound": "O=C(Nc1ccccc1)c1nn(C2CCS(=O)(=O)C2)c2c1CCCC2", "stereo": "configuration not stated", "percent effect": "23.34 and 42.14 and 38.32"}
{"compound": "CCc1noc(C)c1C(=O)N1CCC(c2[nH]ncc2S(C)(=O)=O)C1", "stereo": "configuration not stated", "percent effect": 13.05}
{"compound": "CCOCC(=O)N1Cc2nccn2CC(CN2CCCC2)C1.O=C(O)C(F)(F)F", "stereo": "configuration not stated", "percent effect": 6.566}
{"compound": "Cc1csc2c(=O)n3c(nc12)CCN(C(=O)c1ccnn1C)CC3", "percent effect": 3.347}
{"compound": "CCNC(=O)C(C)Oc1ccc(N(C)S(C)(=O)=O)cc1", "stereo": "configuration not stated", "percent effect": -1.424}
{"compound": "COc1ccc(CNC(=O)CNc2cc3c(cc2Cl)OCCCO3)cc1", "percent effect": 5.536}
{"compound": "O=C(O)C(F)(F)F.O=C(c1ccncc1)N1CCC2(CCCN(c3ncc(F)cn3)C2)C1", "stereo": "configuration not stated", "percent effect": -0.5673}

Data taken from ChEMBL document CHEMBL3988442, “University of Dundee, Small-Polar-MMV Screening Library” (2021).